In all, about 320,000 compounds went through this assay and about 22,000 (6.9%) were called active. Inconclusive results, whose numbers are uncertain, are shown with a selection of clear calls. Calls follow the shape of the dose curve; as a rule, active = well fitted inhibition curve with a large enough effect; inconclusive = small, poorly fitted or top-dose-only effect, or another doubt; inactive = no such curve, though single readings can be large or run the other way. Potencies of inconclusive entries are doubtful fits and often do not repeat.
Assay: Primary qHTS for delayed death inhibitors of the malarial parasite plastid, 96 hour incubation
Conditions: P. falciparum luciferase reporter growth; series mostly up to 28.7 µM; activity change, negative = inhibition: at the top concentration
How it was run: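 Compounds incubated with erythrocytes infected by luciferase-expressing P. falciparum (2% hematocrit, 0.05% parasitemia final) for 96 hours, 37 C in 5% CO2. Growth inhibition scored as decreased luciferase luminescence.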
% is scaled to controls: 0 for no effect and ±100 for the full control effect; potency is read from the fitted curve at half-maximal effect.

Row | SMILES | Potency | activity change, negative = inhibition
1 | CC/C(=N/Nc1ccccc1Cl)c1cnnc(-c2ccccc2)n1 | active: 1.04 µM | 
2 | Oc1ccc2ccccc2c1N=Nc1ccccc1F | inconclusive: 4.15 µM [inhibitor, partial curve] | 
3 | NC(=O)c1cc[n+](CC(=O)c2ccc(NC(=O)c3ccccc3)cc2)cc1 |  | inactive: 64.1%
4 | COc1ccc2c(c1)c(CC(=O)Nc1ccc(C)cc1)c(C)n2C(=O)c1ccc(Cl)cc1 |  | inactive: -12.7%
5 | COc1cccc(NC(=S)N(C)C2CCN(C)CC2)c1 |  | inactive: -4.7%
6 | CC(=O)Nc1ccc(N2C(=O)CSC2c2c(F)cccc2Cl)cc1 (configuration not stated) | inconclusive: 18.5 µM [inhibitor, single point] | 
7 | Cc1nc(N2CCN(Cc3ccc(Cl)cc3)CC2)c2oc3ccccc3c2n1 | inconclusive: 11.7 µM [inhibitor, single point] | 
8 | COc1ccc(C(=O)Nc2c(N)nc(SCC(=O)NCC3CCCO3)[nH]c2=O)cc1OC (configuration not stated) |  | inactive: 8.29%
9 | C=CCn1c(SCC(=O)NC2CCCCC2)nnc1-c1ccccn1 | inconclusive: 18.5 µM [inhibitor, single point] | 
10 | CC(C)Oc1ccc(/C=C/C(=O)NCC2COc3ccccc3O2)cc1 (configuration not stated) |  | inactive: 8.34%
11 | CNC(=S)NNC(=O)CNc1ccc(C)c(Cl)c1 | inconclusive: 18.5 µM [inhibitor, single point] | 
12 | CC1CCC(NC(=O)C(=O)Nc2ccc3c(c2)OCO3)CC1 (configuration not stated) | inconclusive: 18.5 µM [inhibitor, single point] | 
13 | CC1CCN(CCCNC(=O)C2CCCN(c3ncnc4c3nc3n4CCCCC3)C2)CC1 (configuration not stated) | inconclusive: 11.7 µM [inhibitor, single point] | 
14 | CN(C)c1ccc(/C=C(\C#N)c2ccccc2)cc1 |  | inactive: 138%
15 | [O-]c1n[n+](-c2ccc(Cl)cc2Cl)cc2ccccc12 | inconclusive: 18.5 µM [inhibitor, single point] | 
16 | Cc1ccc2oc(=O)c3cnn(CC(=O)Nc4cc(-c5cccc(F)c5)no4)c3c2c1 | inconclusive: 18.5 µM [inhibitor, single point] | 
17 | COc1cc(NCC(=O)Nc2cccc(S(=O)(=O)N3CCCCC3)c2)cc(OC)c1OC | inconclusive: 1.65 µM [inhibitor, partial curve, poor fit] | 
18 | COc1ccccc1NC(=S)N(Cc1cccnc1)Cc1ccccc1Cl | inconclusive: 18.5 µM [inhibitor, single point] | 
19 | Cc1ccccc1OCC(=O)NNC(=S)NC(=O)c1ccco1 | inconclusive: 7.38 µM [inhibitor, partial curve, poor fit] | 
20 | CCCCNC(=O)c1onc(CSc2ccc(Cl)cc2)c1C(=O)O |  | inactive: 54.4%
21 | CCc1nc(SCC(=O)Nc2ccccc2Cl)n[nH]1 | inconclusive: 20.8 µM [inhibitor, single point] | 
22 | CCOC(=O)N1CCN(CC(O)COc2cc(C)cc(C)c2)CC1 (configuration not stated) |  | inactive: 1.88%
23 | O=S(=O)(c1ccc(F)cc1)n1ccc2cccnc21 |  | inactive: 51.4%
24 | Nc1nonc1NC(=O)CSc1nc2ccccc2s1 | active: 10.4 µM | 

Row | SMILES | Potency | activity change, negative = inhibition
25 | Cc1cccc(OCC(=O)NCC(=O)N/N=C/c2ccc(O)cc2O)c1 | inconclusive: 18.5 µM [inhibitor, single point] | 
26 | COc1ccccc1CC(=O)N1CCC(CCC(=O)NC2CC2)CC1 |  | inactive: 226%
27 | Cc1cc(C)cc(NC(=O)Cn2c(SCc3cc(C)ccc3C)nc3ccncc32)c1 |  | inactive: 112%
28 | COc1ccc(N2CC(C(=O)Nc3ccc([N+](=O)[O-])cc3Br)CC2=O)cc1 (configuration not stated) | inconclusive: 13.1 µM [inhibitor, partial curve] | 
29 | COc1ccc(/C(C)=N/NC(=O)CNC(=O)c2cccnc2)cc1OC |  | inactive: -24.6%
30 | CCc1ccc(NC(=O)c2noc3c2CCC3)cc1 | inconclusive: 18.5 µM [inhibitor, partial curve, poor fit] | 
31 | COc1ccc(-n2c(-c3ccccc3[N+](=O)[O-])nc3ccccc3c2=O)cc1 | inconclusive: 13.1 µM [inhibitor, partial curve, poor fit] | 
32 | Cc1nc(SCC(=O)Nc2ccc(C)c(F)c2)c2oc3ccccc3c2n1 | inconclusive: 9.28 µM [inhibitor, single point] | 
33 | CN1CCCC(CC2Oc3ccccc3Sc3ccccc32)C1 (configuration not stated) | inconclusive: 10.4 µM [inhibitor, single point] | 
34 | COc1ccc2oc(=N)c(C(=O)Nc3ccc(F)cc3)cc2c1 | inconclusive: 10.4 µM [inhibitor, single point] | 
35 | O=C(NC(=S)N(CCc1ccccc1)CCc1ccccc1)c1ccco1 | inconclusive: 9.28 µM [inhibitor, partial curve, poor fit] | 
36 | CCOc1ccccc1/C=C(/C#N)C(N)=O | inconclusive: 0.233 µM [inhibitor, full curve] | 
37 | CN(CC1CCCN(CCc2ccc(Cl)cc2)C1)C(=O)CC(F)(F)F (configuration not stated) | inconclusive: 10.4 µM [inhibitor, single point] | 
38 | CC(C)(O)C#Cc1ccc(CN2CCCC(CO)(Cc3cccc(Cl)c3)C2)cc1 (configuration not stated) |  | inactive: -12.3%
39 | CN(c1ccc2nc3ccccc3c(=O)n2n1)C1CCCCC1 | inconclusive: 1.04 µM [inhibitor, partial curve, poor fit] | 
40 | CC1(C)NC(=O)N(CC(=O)N2CCC(Cc3ccccc3)CC2)C1=O | inconclusive: 3.7 µM [inhibitor, single point] | 
41 | O=C(NNC(=O)c1ccccc1Cl)c1cccs1 | inconclusive: 14.7 µM [inhibitor, single point] | 
42 | O=C(CSc1nnc(NC2CCCCC2)s1)NN1C(=O)NC2(CCCCC2)C1=O |  | inactive: -25.9%
43 | N#C/C(=C\c1ccc(OCc2ccccc2)cc1)C(=O)Nc1ccc(C(=O)O)cc1 |  | inactive: 33.6%
44 | Cc1cc(C)nc(-n2nc(C)cc2NC(=O)c2cccc(S(=O)(=O)N(C)C)c2)n1 |  | inactive: 2.28%
45 | O=C(Nc1ncc(Br)s1)C(Cc1ccccc1)n1cccc1 (configuration not stated) | inconclusive: 10.4 µM [inhibitor, single point] | 
46 | COc1cc(NC(=O)CN2C(=O)NC(c3ccccc3)(c3ccccc3)C2=O)c(C)cc1[N+](=O)[O-] | inconclusive: 10.4 µM [inhibitor, single point] | 
47 | CC(=O)Nc1ccc2c(c1)nc(CCNC(=O)c1ccccc1)n2C | inconclusive: 14.7 µM [inhibitor, partial curve, poor fit] | 
48 | Cc1ccc(C(=O)/C=C/c2ccccc2)o1 | inconclusive: 9.28 µM [inhibitor, partial curve, poor fit] | 

Arranged by SMILES length (low to high): 3 of the compounds above
Row | SMILES | Potency | activity change, negative = inhibition
48 | Cc1ccc(C(=O)/C=C/c2ccccc2)o1 | inconclusive: 9.28 µM [inhibitor, partial curve, poor fit] | 
39 | CN(c1ccc2nc3ccccc3c(=O)n2n1)C1CCCCC1 | inconclusive: 1.04 µM [inhibitor, partial curve, poor fit] | 
47 | CC(=O)Nc1ccc2c(c1)nc(CCNC(=O)c1ccccc1)n2C | inconclusive: 14.7 µM [inhibitor, partial curve, poor fit] | 

Random excerpt: two entries already listed.
Row | SMILES | Potency | activity change, negative = inhibition
34 | COc1ccc2oc(=N)c(C(=O)Nc3ccc(F)cc3)cc2c1 | inconclusive: 10.4 µM [inhibitor, single point] | 
27 | Cc1cc(C)cc(NC(=O)Cn2c(SCc3cc(C)ccc3C)nc3ccncc32)c1 |  | inactive: 112%

Next records:

Row | SMILES | Potency | activity change, negative = inhibition
49 | Cc1ccc(-c2csc(N3CCC(C(N)=O)CC3)n2)cc1 | inconclusive: 11.7 µM [activator, partial curve] | 
50 | Cn1c2ccccc2c(=O)c2c(=O)n(Cc3ccccc3)c(-c3ccc(F)cc3)nc21 | active: 5.22 µM | 
51 | O=C(OCc1ccc(Br)cc1)c1cccc(-c2nnc(-c3ccccc3)o2)c1 | inconclusive: 18.5 µM [inhibitor, single point] | 
52 | O=C(CNC(=S)N(CCCN1CCOCC1)Cc1cccs1)NCc1ccc(Cl)cc1 | inconclusive: 11.7 µM [inhibitor, partial curve, poor fit] | 
53 | O=C(Nc1nnc(C2CC2)s1)c1cc2ccccc2o1 |  | inactive: 94.2%
54 | Cc1ccc(-c2c[n+](CC(=O)Nc3cc(=O)n(C)c(=O)n3C)c3n2CCC3)cc1 | active: 1.17 µM | 
55 | O=C(NCC1CCCO1)c1ccc2c(=O)n(CC3CCCO3)c(=S)[nH]c2c1 (configuration not stated) | inconclusive: 0.104 µM [inhibitor, full curve, poor fit] | 
56 | CC(=O)Nc1ccc(Oc2nc(C(F)(F)F)nc3ccccc23)cc1 | inconclusive: 11.7 µM [inhibitor, partial curve] | 
57 | O=C1CSC(c2cccnc2)N1Cc1ccc(Cl)cc1Cl (configuration not stated) | active: 9.28 µM | 
58 | COc1ccc(C2C(C(=O)c3ccc(C)o3)=C(O)C(=O)N2Cc2cccnc2)cc1 (configuration not stated) | inconclusive: 10.4 µM [inhibitor, partial curve] | 
59 | CCC1(C)CC(CCN(Cc2ccco2)C(C)=O)(c2ccccc2)CCO1 (configuration not stated) | active: 4.15 µM | 
60 | O=C(O)c1ccc(OCC2CCCO2)cc1 (configuration not stated) |  | inactive: -21.2%
61 | Nn1c(SCC(=O)Nc2cc(C(F)(F)F)ccc2Cl)nncc1=O | inconclusive: 13.1 µM [inhibitor, partial curve] | 
62 | Cc1c(C#N)c(NC(=O)CCl)n(Cc2cccs2)c1C | active: 3.29 µM | 
63 | COc1ccc(-n2c(SCC(N)=O)nc3sc4c(c3c2=O)CCC4)cc1 |  | inactive: -4.59%
64 | CS(=O)(=O)N1CCN(c2nc(-c3ccccc3)cs2)CC1 | inconclusive: 0.0029 µM [inhibitor, full curve, poor fit] | 
65 | Cc1[nH]c2ccccc2c1C(=O)CSc1ccc(F)cc1 | inconclusive: 10.4 µM [inhibitor, single point] | 
66 | CN(CCCNC(=O)C1CCCN(S(=O)(=O)c2cnc[nH]2)C1)c1ccccc1 (configuration not stated) | inconclusive: 11.7 µM [inhibitor, single point] | 
67 | CCCNc1nc2c(c(=O)n(C)c(=O)n2C)n1CCc1ccccc1 | inconclusive: 18.5 µM [inhibitor, single point] | 
68 | CCOC(=O)C1=C(C)NC(=O)C(C(N)=O)C1c1ccccc1 (configuration not stated) | inconclusive: 0.0738 µM [inhibitor, full curve, poor fit] | 
69 | CC1(C)CCc2c([nH]c3ccccc3c2=O)O1 | inconclusive: 0.329 µM [inhibitor, full curve, poor fit] | 
70 | Cc1ccc(-c2csc(NC(=O)CN3C(=O)CCC3=O)n2)cc1 |  | inactive: 0%
71 | Cc1c(OC(C)C(=O)NCCN2CCOCC2)ccc2c(-c3ccccc3)cc(=O)oc12 (configuration not stated) | inconclusive: 14.7 µM [inhibitor, partial curve, poor fit] | 
72 | Cc1cc(Nc2ccccc2Cl)nc(-c2ccccc2O)n1 | inconclusive: 0.37 µM [inhibitor, full curve] | 

Reference: PubChem BioAssay AID504834 (National Center for Advancing Translational Sciences (NCATS), 2011)
